Laboratory results reported in patent US12247246B2, “Identification of inhibitors of TcpC and TIR NADase activity” (Washington University, priority 2017, dated 2025).
At least one compound was matched to its structure with a doubt left.

Protein sequences, listed by entry. Tags and fused reporters are not part of them. Residues count along the entry.
UniProt A0A0H2V8B5, 169-303 limits assumed: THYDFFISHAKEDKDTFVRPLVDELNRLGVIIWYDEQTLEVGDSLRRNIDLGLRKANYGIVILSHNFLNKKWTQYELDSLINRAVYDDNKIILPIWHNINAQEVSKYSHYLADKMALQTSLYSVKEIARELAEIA
UniProt P0DTS9, 141-275 limits assumed: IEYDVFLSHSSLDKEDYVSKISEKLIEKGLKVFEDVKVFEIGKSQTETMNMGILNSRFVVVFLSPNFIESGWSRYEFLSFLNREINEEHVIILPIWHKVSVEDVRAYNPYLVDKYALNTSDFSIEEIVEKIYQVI

Key:
[1] = target: TcpC TIR (Escherichia coli O6:H1, UniProt A0A0H2V8B5); assay type: biochemical, uropathogenic Escherichia coli; conditions: data not shown
Procedure: NRK1-HEK293T cells were seeded onto 150 cm2 plates at 20×10^6 cells per plate. […] Forty-eight hours after transfection, cells were harvested, pelleted by centrifugation at 1,000 rpm (Sorvall ST 16R centrifuge, Thermo Fisher), and washed once with cold PBS (0.01 M phosphate buffered saline NaCl 0.138 M; KCl 0.0027 M; pH 7.4). The cells were resuspended in PBS with protease inhibitors (Complete protease inhibitor cocktail, Roche product #11873580001) and cell lysates were prepared by sonication (Branson Sonifer 450, output=3, 20 episodes of stroke). […] Protein concentration was determined by the Bicinchoninic (BCA) method and used to normalize lysate concentrations.
(§1) The reaction was incubated at 37° C. for 60 min, and then stopped by addition of 180 μl of 0.55 M perchloric acid (HClO4) and placed on ice. After 10 min on ice, the reaction plates were centrifuged for 10 min at 4,000 rpm (Sorvall ST 16R centrifuge). The supernatant (120 μl) was transferred to a new plate and 10 μl of 3M K2CO3 was added to neutralize the solution. Precipitated salts were removed by centrifugation 10 min at 4,000 rpm (Sorvall ST 16R centrifuge). […] This ratio was compared to the ratio generated in the absence of compound inhibitors.
Positive hits were individually purchased from Sigma and tested its dose dependent inhibition in conditions described above. […]

[2] = target: TirS (Staphylococcus aureus, UniProt P0DTS9); experiment: TirS NADase inhibition assay (in-vitro translated protein, NAD/ADPR by HPLC); assay type: biochemical; conditions: 960 drugs from Pharmakon library, 25 uM compound, 10 uM NAD, 37° C. 60 min
Procedure: as §1

[3] = target: T1, SARM1 (Sam-Tir) (Homo sapiens, UniProt Q6SZW1); experiment: SARM1 Sam-Tir lysate NADase inhibition assay; assay type: biochemical; conditions: data not shown
T1 construct: SARM1 Sam-Tir lysate and MSSA Tir were also used; made in house; host or cells: lysate
T1 sequence (Q6SZW1 410-724 limits assumed): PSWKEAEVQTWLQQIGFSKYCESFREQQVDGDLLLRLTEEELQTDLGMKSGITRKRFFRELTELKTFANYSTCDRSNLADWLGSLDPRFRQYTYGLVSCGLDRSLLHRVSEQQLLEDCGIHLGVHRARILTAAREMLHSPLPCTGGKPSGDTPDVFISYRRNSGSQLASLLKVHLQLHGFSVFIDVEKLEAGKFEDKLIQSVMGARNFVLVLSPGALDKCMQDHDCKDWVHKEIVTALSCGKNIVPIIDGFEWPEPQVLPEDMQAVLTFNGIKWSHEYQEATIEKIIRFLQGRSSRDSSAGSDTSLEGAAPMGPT
Procedure: NAD (10 μM final concentration) was then added for a final reaction volume of 20 μl. The reaction was incubated at 37° C. for 60 min, and then stopped by addition of 180 μl of 0.55 M perchloric acid (HClO4) and placed on ice. After 10 min on ice, the reaction plates were centrifuged for 10 min at 4,000 rpm (Sorvall ST 16R centrifuge). The supernatant (120 μl) was transferred to a new plate and 10 μl of 3M K2CO3 was added to neutralize the solution. Precipitated salts were removed by centrifugation 10 min at 4,000 rpm (Sorvall ST 16R centrifuge). The supernatant was transferred and analyzed by HPLC (Shimadzu Nexera X2) to quantify the amounts of NAD and ADPR, a product of the cleavage reaction, in each sample. From these values, the NAD/ADPR ratio was calculated for each compound as a measure of NAD cleavage activity. This ratio was compared to the ratio generated in the absence of compound inhibitors.
Positive hits were individually purchased from Sigma and tested its dose dependent inhibition in conditions described above. SARM1 Sam-Tir lysate and MSSA Tir were also used to test if these compounds could block these Tir NADase activities as well.

`CC(O)C(=O)O.CCOc1ccc2nc3cc(N)ccc3c(N)c2c1` (racemic) [Acrinol, 6,9-Diamino-2-ethoxyacridine-DL-lactate monohydrate] was tested. Which “inhibition of TcpC TIR NADase activity” value [1] did it give?
Its value is “Neither of these drugs inhibited”.

And the “hit in screen for TirS NADase inhibitors” value [2]?
The value was “hits”.

What about the “inhibition of SARM1 (Sam-Tir) NADase activity” value [3] of the same compound?
Its value is “Neither of these drugs inhibited”.
